In US20250313631A1:
Positions count from the first letter of the chain named. These are yes or no findings as the source states them, for the method shown. Some results given as binding are weak or reduced against the parent protein; the word gives no strength.

B1: anti-VISTA clone V4-C24 IgG1 (antibody, V domains shown)
VH: QVQLQESGPGLVKPSDTLSLTCTVSGYSITSDYTWNWIRQTPGKGLEWIGHITYSGSVSYNPSLRSRVTISRDTSKNQFSLKLSSVTAADTATYSCARALYYPWYFDVWGTGTTVTVSS
VL: EIVLTQSPATLSLSPGERATLSCRASSSVGYIHWYQQKPGQAPRPLIYTTSYRATGIPARFSGSGSGTDNTLTISSLEPEDSAVYYCQQWSSYPPITFGGGTKLEVKR
B2: anti-VISTA clone V4-C27 IgG1 (antibody, V domains shown)
VH: B1 VH
VL: B1 VL with T49A, S51Y, Y52N
B3: anti-VISTA clone V4-C28 IgG1 (antibody, V domains shown)
VH: B1 VH
VL: B1 VL with T49A
B4: anti-VISTA clone V4-C30 IgG1 (antibody, V domains shown)
VH: B1 VH
VL: B1 VL with T49A, S51Y
B5: anti-VISTA clone V4-C31 IgG1 (antibody, V domains shown)
VH: B1 VH
VL: B1 VL with T49A, S51Y, A54T
B6: anti-VISTA clone 13D5-1 IgG1 (antibody, V domains shown)
VH: QVQLQQSGAELVRPGTSVKISCKASGYTFTNYWLGWVKQRPGHGLEWIGDIYPGGGYTNYNEKFKGKATLTADTSSSTAYMQLSSLTSEDSAVYFCVRSGYYYGSSWYFDVWGAGTTVTVSS
VL: DVLMTQTPLSLPVSLGDQASISCRSSQSIVHSSGNTYLEWYLQKPDQSPKLLIYKVSNRFSGVPDRFSGSGSGTDFTLKISRVEAEDLGVYYCFQGSHVPPTFGGGTKLEIKR

target: recombinant cynomolgus macaque VISTA (His-tagged) (cynomolgus macaque); assay: ELISA, plate coated with cyno VISTA

binding, binds:
B1
B2
B3
B4
B5

target: recombinant cynomolgus macaque VISTA (His-tagged) (cynomolgus macaque); assay: ELISA

binding, binds:
B6
B1
B2
B3
B4
B5

target: recombinant cynomolgus macaque VISTA (His-tagged) (cynomolgus macaque); assay: ELISA, target protein coated, absorbance 450 nm

binding, binds:
B6
